In the supplement of paper PMC10470496:
Counter-ions that a name gives are not always drawn. Some of the results follow. Repeats are few or missing, and single values can be far off.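 Three clinical Candida auris isolates (clades III, IV and I) from the CDC resistance isolate bank were grown in RPMI-1640 at 35°C. Growth was background-corrected OD600 relative to same-plate vehicle-only wells. Hits required over 50% inhibition in at least two strains and a plate-corrected B-score above 0.1.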

What was measured:
Assay in all cases: growth relative to vehicle control (OD600 ratio) (fraction); higher = less inhibition
Details in all cases: 24 h
C. auris AR-384 = system: C. auris AR-384
C. auris AR-386 = system: C. auris AR-386
C. auris AR-387 = system: C. auris AR-387

Row | Structure (SMILES) | growth (C. auris AR-384; 1 µM) | growth (C. auris AR-384; 10 µM) | growth (C. auris AR-386; 1 µM) | growth (C. auris AR-386; 10 µM) | growth (C. auris AR-387; 1 µM) | growth (C. auris AR-387; 10 µM)
1 | CCOC(=O)N1CCC(=C2c3ccc(Cl)cc3CCc3cccnc32)CC1 [Loratadine] | 1.33 | 0.84 | 0.88 | 1.17 | 1.13 | 1.19
2 | C=C(c1ccc(C(=O)O)cc1)c1cc2c(cc1C)C(C)(C)CCC2(C)C [Bexarotene] | 0.9 | 1.12 | 0.74 | 0.96 | 0.94 | 0.94
3 | C[C@@H](O[C@H]1OCCN(Cc2nn(P(=O)(O)O)c(=O)[nH]2)[C@H]1c1ccc(F)cc1)c1cc(C(F)(F)F)cc(C(F)(F)F)c1 [Fosaprepitant dimeglumine salt] | 0.86 | 0.88 | 0.85 | 1.47 | 0.98 | 0.94
4 | CS(=O)(=O)c1ccc(C2=C(c3ccccc3)C(=O)OC2)cc1 [Rofecoxib] | 1.06 | 0.89 | 1.13 | 1.43 | 1.27 | 1.19
5 | COc1cc(Nc2ncc(F)c(Nc3ccc4c(n3)N(COP(=O)(O)O)C(=O)C(C)(C)O4)n2)cc(OC)c1OC [R788 (Fostamatinib) Disodium] | 0.82 | 0.8 | 0.8 | 0.74 | 0.76 | 1.03
6 | Cn1nnc2c(C(N)=O)ncn2c1=O [Temozolomide] | 0.95 | 0.55 | 0.59 | 0.91 | 1.01 | 0.71
7 | O=C(O)c1ccc(-n2nc(-c3ccccc3O)nc2-c2ccccc2O)cc1 [Deferasirox] | 0.94 | 1.17 | 1.19 | 0.71 | 1.11 | 1.08
8 | CC[C@H](C)C(=O)O[C@H]1C[C@H](O)C=C2C=C[C@H](C)[C@H](CC[C@@H](O)C[C@@H](O)CC(=O)O)[C@H]21 [Pravastatin sodium] | 0.98 | 0.78 | 0.85 | 0.96 | 0.78 | 0.99
9 | CN(C)CCOc1ccc(/C(=C(/CCCl)c2ccccc2)c2ccccc2)cc1 [Toremifene Citrate] | 0.83 | 1.04 | 1.06 | 0.73 | 0.69 | 0.87
10 | C#C[C@]1(O)CC[C@H]2[C@@H]3CCC4=CC(=O)CC[C@@H]4[C@H]3C(=C)C[C@@]21CC [Etonogestrel] | 0.73 | 1.03 | 0.75 | 0.92 | 0.65 | 0.83
11 | CC(C)c1c(C(=O)Nc2ccccc2)c(-c2ccccc2)c(-c2ccc(F)cc2)n1CC[C@@H](O)C[C@@H](O)CC(=O)O [Atorvastatin Calcium] | 0.95 | 1.17 | 0.97 | 1.46 | 1.22 | 1.12
12 | C[C@]12C=CC(=O)C=C1CC[C@@H]1[C@@H]2C(=O)C[C@@]2(C)[C@H]1CC[C@]2(O)C(=O)CO [Prednisone] | 1.29 | 0.74 | 0.98 | 1.06 | 1 | 1.01
13 | CCOc1cc2ncc(C#N)c(Nc3ccc(OCc4ccccn4)c(Cl)c3)c2cc1NC(=O)/C=C/CN(C)C [Neratinib (HKI-272)] | 0.92 | 0.82 | 0.78 | 0.74 | 0.96 | 1.12
14 | CO[C@H]1C[C@@H]2CC[C@@H](C)[C@@](O)(O2)C(=O)C(=O)N2CCCC[C@H]2C(=O)O[C@H]([C@H](C)C[C@@H]2CC[C@@H](O)[C@H](OC)C2)CC(=O)[C@H](C)/C=C(\C)[C@@H](O)[C@@H](OC)C(=O)[C@H](C)C[C@H](C)/C=C/C=C/C=C/1C [Rapamycin (Sirolimus)] | 0.16 | 0.09 | 0.04 | 0.12 | 0.08 | 0.08
15 | CCCOc1ccc(C(=O)OCCN(CC)CC)cc1N [Proparacaine HCl] | 0.96 | 0.93 | 0.82 | 1.21 | 0.92 | 0.77
16 | Nc1ccc(/N=N/c2ccccc2)c(N)n1 [Phenazopyridine HCl] | 1.32 | 0.92 | 1 | 1.09 | 0.87 | 0.83
17 | Nc1nc(N)c2nc(-c3ccccc3)c(N)nc2n1 [Triamterene] | 1.09 | 1.26 | 1.43 | 1.32 | 1.6 | 1.24
18 | NC(=O)c1ncn([C@@H]2O[C@H](CO)[C@@H](O)[C@H]2O)c1N [AICAR (Acadesine)] | 1.01 | 0.85 | 1.01 | 0.96 | 0.97 | 1.02
19 | CCCCCCCN(CC)CCCC(O)c1ccc(NS(C)(=O)=O)cc1 (stereo not given) [Ibutilide Fumarate] | 0.76 | 1.15 | 1.01 | 0.65 | 0.85 | 0.67
20 | CCN1CCN(Cc2ccc(Nc3ncc(F)c(-c4cc(F)c5nc(C)n(C(C)C)c5c4)n3)nc2)CC1 | 0.92 | 0.7 | 1.03 | 0.69 | 0.81 | 0.7
21 | Nc1nc2[nH]cc(CCc3ccc(C(=O)N[C@@H](CCC(=O)O)C(=O)O)cc3)c2c(=O)[nH]1 [Pemetrexed Disodium Hydrate] | 0.65 | 0.47 | 0.66 | 0.78 | 0.7 | 0.86
22 | CCN(CC)CCOC(=O)c1ccc(N)cc1Cl [Chloroprocaine HCl] | 1.14 | 0.91 | 0.98 | 1.04 | 0.83 | 1.03
23 | CC(=O)OCC(=O)[C@@]1(O)[C@H](C)C[C@H]2[C@@H]3CCC4=CC(=O)C=C[C@]4(C)[C@@]3(F)[C@@H](O)C[C@@]21C [Dexamethasone Acetate] | 1.02 | 1.13 | 1.29 | 1.21 | 1.26 | 0.99

Another view of 4 compounds above:
Row,Structure (SMILES),growth (C. auris AR-384; 1 µM),growth (C. auris AR-384; 10 µM),growth (C. auris AR-386; 1 µM),growth (C. auris AR-386; 10 µM),growth (C. auris AR-387; 1 µM),growth (C. auris AR-387; 10 µM)
12,C[C@]12C=CC(=O)C=C1CC[C@@H]1[C@@H]2C(=O)C[C@@]2(C)[C@H]1CC[C@]2(O)C(=O)CO [Prednisone],1.29,0.74,0.98,1.06,1,1.01
13,CCOc1cc2ncc(C#N)c(Nc3ccc(OCc4ccccn4)c(Cl)c3)c2cc1NC(=O)/C=C/CN(C)C [Neratinib (HKI-272)],0.92,0.82,0.78,0.74,0.96,1.12
14,CO[C@H]1C[C@@H]2CC[C@@H](C)[C@@](O)(O2)C(=O)C(=O)N2CCCC[C@H]2C(=O)O[C@H]([C@H](C)C[C@@H]2CC[C@@H](O)[C@H](OC)C2)CC(=O)[C@H](C)/C=C(\C)[C@@H](O)[C@@H](OC)C(=O)[C@H](C)C[C@H](C)/C=C/C=C/C=C/1C [Rapamycin (Sirolimus)],0.16,0.09,0.04,0.12,0.08,0.08
15,CCCOc1ccc(C(=O)OCCN(CC)CC)cc1N [Proparacaine HCl],0.96,0.93,0.82,1.21,0.92,0.77

Going on with the list:

Row | Structure (SMILES) | growth (C. auris AR-384; 1 µM) | growth (C. auris AR-384; 10 µM) | growth (C. auris AR-386; 1 µM) | growth (C. auris AR-386; 10 µM) | growth (C. auris AR-387; 1 µM) | growth (C. auris AR-387; 10 µM)
24 | COCCOC(=O)C1=C(C)NC(C)=C(C(=O)OC/C=C/c2ccccc2)C1c1cccc([N+](=O)[O-])c1 (stereo not given) [Cilnidipine] | 1.02 | 1.1 | 1.06 | 0.76 | 1 | 0.75
25 | CNCC[C@@H](Oc1ccccc1C)c1ccccc1 [Atomoxetine HCl] | 1.02 | 0.89 | 0.59 | 0.63 | 0.64 | 0.95
26 | O=c1[nH]c(=O)n(C2CCCO2)cc1F (stereo not given) | 1.07 | 0.67 | 1.07 | 1.11 | 0.9 | 0.89
27 | CCCN1CCCC[C@H]1C(=O)Nc1c(C)cccc1C [Ropivacaine HCl] | 0.94 | 0.85 | 0.82 | 0.95 | 0.77 | 0.89
28 | COc1ccccc1N1CCN(CC(O)COc2cccc3ccccc23)CC1 (stereo not given) [Naftopidil] | 0.63 | 0.6 | 0.77 | 0.68 | 0.71 | 0.76
29 | CCCNC(C)C(=O)Nc1c(C)csc1C(=O)OC (stereo not given) [Articaine HCl] | 1.18 | 1.21 | 0.91 | 0.98 | 1.03 | 0.84
30 | Cc1ccc2c(Cl)cc(Cl)c(O)c2n1 [Chlorquinaldol] | 0.73 | 0.18 | 0.4 | 0.08 | 0.57 | 0.06
31 | CC[C@@H](CO)NCCN[C@@H](CC)CO [Ethambutol 2HCl] | 1.02 | 1.05 | 1.09 | 1.13 | 1.09 | 1.12
32 | O=c1[nH]c(=O)c2ccccc2o1 [Carsalam] | 0.92 | 0.97 | 0.96 | 1.1 | 0.75 | 0.98
33 | Cc1ccc(C(=O)C(C)CN2CCCCC2)cc1 (stereo not given) [Tolperisone HCl] | 0.76 | 0.78 | 0.77 | 0.52 | 0.56 | 0.71
34 | COC(=O)[C@H]1[C@H]2C[C@@H]3c4[nH]c5cc(OC)ccc5c4CCN3C[C@H]2C[C@@H](OC(=O)c2cc(OC)c(OC)c(OC)c2)[C@@H]1OC [Reserpine] | 1.58 | 0.85 | 1.13 | 0.81 | 0.76 | 1.17
35 | O=C1CCc2ccc(OCCCCN3CCN(c4cccc(Cl)c4Cl)CC3)cc2N1 [Aripiprazole] | 0.9 | 0.98 | 1.03 | 0.79 | 0.75 | 0.98
36 | CCCC(CCC)C(=O)O[C@H]1C[C@H]2CC[C@@H](C1)[N+]2(C)C [Anisotropine Methylbromide] | 0.86 | 0.83 | 1.08 | 1 | 0.66 | 0.92
37 | CO/N=C(\C(=O)N[C@@H]1C(=O)N2C(C(=O)[O-])=C(C[N+]3(C)CCCC3)CS[C@H]12)c1csc(N)n1 [Cefepime Dihydrochloride Monohydrate] | 0.91 | 0.81 | 0.89 | 0.58 | 0.63 | 0.77
38 | CC[C@H]1OC(=O)[C@H](C)[C@@H](O[C@H]2C[C@@](C)(OC)[C@@H](O)[C@H](C)O2)[C@H](C)[C@@H](O[C@@H]2O[C@H](C)C[C@H](N(C)C)[C@H]2O)[C@](C)(O)C[C@@H](C)/C(=N\OCOCCOC)[C@H](C)[C@@H](O)[C@]1(C)O [Roxithromycin] | 1.01 | 0.84 | 0.54 | 0.62 | 0.84 | 0.76
39 | C[C@H]1c2cccc(O)c2C(=O)C2=C(O)[C@]3(O)C(=O)C(C(N)=O)=C(O)[C@@H](N(C)C)[C@@H]3[C@@H](O)[C@@H]21 [Doxycycline HCl] | 0.88 | 0.9 | 0.96 | 0.93 | 1.03 | 1
40 | CC(=O)OC/C=C(C)/C=C/C=C(C)/C=C/C1=C(C)CCCC1(C)C [Vitamin A Acetate] | 1.28 | 0.94 | 1.34 | 0.84 | 1 | 0.77
41 | C=C1/C(=C\C=C2/CCC[C@]3(C)[C@@H]([C@H](C)/C=C/[C@H](C)C(C)C)CC[C@@H]23)C[C@@H](O)C[C@@H]1O [Doxercalciferol] | 1.12 | 1.13 | 0.72 | 1.04 | 0.82 | 1.26
42 | C[C@]12CC[C@@H]3c4ccc(O)cc4CC[C@H]3[C@@H]1CCC2=O [Estrone] | 0.96 | 0.59 | 0.57 | 0.95 | 0.81 | 0.84
43 | COc1cc(Cc2cnc(N)nc2N)cc(OC)c1OC [Trimethoprim] | 0.96 | 1.01 | 0.93 | 0.93 | 0.98 | 0.7
44 | CN1C(C(=O)Nc2ccccn2)=C(O)c2sccc2S1(=O)=O [Tenoxicam] | 0.87 | 0.85 | 0.66 | 0.84 | 0.7 | 0.67
45 | C[C@H]1CNCCCN1S(=O)(=O)c1cccc2cncc(F)c12 [Ripasudil (K-115) hydrochloride dihydrate] | 1.01 | 1.12 | 0.77 | 0.84 | 0.79 | 0.86
